Measured values published in the supplement of paper PMC10849652.
This is one part of the list.

Sequences of proteins named here, by UniProt entry; tags and fusion partners are left off. A change or cut given only in a name is not applied to a line headed by its entry.
UniProt Q96HN2, whole entry, looked up: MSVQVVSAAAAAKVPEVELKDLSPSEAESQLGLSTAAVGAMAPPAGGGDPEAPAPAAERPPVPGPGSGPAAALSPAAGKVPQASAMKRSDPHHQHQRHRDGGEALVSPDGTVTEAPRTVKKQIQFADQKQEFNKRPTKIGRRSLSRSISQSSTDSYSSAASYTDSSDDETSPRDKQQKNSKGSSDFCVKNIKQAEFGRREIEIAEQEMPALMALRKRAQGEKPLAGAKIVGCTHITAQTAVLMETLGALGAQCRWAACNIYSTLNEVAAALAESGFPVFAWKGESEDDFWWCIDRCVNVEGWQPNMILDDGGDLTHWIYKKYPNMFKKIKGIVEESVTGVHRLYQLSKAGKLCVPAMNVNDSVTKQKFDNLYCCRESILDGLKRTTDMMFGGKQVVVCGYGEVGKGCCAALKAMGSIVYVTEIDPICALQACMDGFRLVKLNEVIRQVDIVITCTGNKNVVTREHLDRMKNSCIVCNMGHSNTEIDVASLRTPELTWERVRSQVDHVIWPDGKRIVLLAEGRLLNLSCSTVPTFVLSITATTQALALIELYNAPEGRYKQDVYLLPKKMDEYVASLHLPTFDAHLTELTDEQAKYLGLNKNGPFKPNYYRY
UniProt O43488: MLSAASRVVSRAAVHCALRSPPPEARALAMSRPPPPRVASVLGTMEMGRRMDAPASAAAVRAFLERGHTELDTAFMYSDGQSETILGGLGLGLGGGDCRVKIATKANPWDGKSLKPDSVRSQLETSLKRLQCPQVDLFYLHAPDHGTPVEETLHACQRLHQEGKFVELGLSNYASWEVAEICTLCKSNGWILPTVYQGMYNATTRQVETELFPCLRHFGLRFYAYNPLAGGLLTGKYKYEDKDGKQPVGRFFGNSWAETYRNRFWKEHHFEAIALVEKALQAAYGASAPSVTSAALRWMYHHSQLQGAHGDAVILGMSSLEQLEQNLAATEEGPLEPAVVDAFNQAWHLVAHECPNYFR
UniProt P42025, whole entry, looked up: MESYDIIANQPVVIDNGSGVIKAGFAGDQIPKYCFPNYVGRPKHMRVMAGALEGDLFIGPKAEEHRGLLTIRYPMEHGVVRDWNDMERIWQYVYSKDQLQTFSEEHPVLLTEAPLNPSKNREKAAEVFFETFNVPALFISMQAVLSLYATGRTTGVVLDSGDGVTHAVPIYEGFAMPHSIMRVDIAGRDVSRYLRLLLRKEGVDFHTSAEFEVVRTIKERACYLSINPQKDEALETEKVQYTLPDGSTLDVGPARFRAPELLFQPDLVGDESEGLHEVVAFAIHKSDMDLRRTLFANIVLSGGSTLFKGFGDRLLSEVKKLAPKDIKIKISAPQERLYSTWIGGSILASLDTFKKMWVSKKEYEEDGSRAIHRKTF
UniProt Q96BJ3: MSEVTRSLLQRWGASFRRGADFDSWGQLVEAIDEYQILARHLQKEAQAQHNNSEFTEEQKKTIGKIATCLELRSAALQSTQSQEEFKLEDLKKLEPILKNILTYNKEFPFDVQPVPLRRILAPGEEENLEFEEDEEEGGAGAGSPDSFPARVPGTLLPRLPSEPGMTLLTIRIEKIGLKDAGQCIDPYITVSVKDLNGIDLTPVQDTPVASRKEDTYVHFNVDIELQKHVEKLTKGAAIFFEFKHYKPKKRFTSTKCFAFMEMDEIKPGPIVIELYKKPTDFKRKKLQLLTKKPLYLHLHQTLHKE
UniProt P14550: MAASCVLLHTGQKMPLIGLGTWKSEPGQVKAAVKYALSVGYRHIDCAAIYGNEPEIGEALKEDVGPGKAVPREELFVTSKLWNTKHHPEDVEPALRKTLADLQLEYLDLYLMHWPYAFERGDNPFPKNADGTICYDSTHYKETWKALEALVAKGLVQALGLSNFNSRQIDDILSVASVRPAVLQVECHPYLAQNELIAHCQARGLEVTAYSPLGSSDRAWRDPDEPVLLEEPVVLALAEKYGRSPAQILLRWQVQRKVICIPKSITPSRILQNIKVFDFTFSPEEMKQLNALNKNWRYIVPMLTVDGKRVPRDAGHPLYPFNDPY
UniProt P35611: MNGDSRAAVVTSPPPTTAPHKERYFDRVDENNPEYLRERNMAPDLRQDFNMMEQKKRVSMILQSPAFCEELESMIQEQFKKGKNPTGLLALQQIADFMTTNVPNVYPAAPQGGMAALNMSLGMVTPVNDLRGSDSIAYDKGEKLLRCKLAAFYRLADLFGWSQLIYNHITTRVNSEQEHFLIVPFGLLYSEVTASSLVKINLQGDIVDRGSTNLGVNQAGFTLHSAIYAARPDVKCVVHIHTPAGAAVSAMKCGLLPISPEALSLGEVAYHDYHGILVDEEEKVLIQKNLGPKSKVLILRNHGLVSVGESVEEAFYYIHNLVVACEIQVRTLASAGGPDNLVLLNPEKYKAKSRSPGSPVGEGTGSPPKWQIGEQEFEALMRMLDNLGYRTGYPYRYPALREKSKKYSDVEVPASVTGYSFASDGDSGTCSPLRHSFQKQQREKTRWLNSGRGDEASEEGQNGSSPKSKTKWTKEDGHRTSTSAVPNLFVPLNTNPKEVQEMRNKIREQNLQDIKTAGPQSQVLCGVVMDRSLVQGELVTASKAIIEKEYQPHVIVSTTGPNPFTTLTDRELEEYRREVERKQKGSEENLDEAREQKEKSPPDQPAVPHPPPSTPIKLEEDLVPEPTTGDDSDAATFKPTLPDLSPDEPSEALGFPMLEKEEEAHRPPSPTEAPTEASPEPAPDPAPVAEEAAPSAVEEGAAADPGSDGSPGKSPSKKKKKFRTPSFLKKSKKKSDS
UniProt P02771: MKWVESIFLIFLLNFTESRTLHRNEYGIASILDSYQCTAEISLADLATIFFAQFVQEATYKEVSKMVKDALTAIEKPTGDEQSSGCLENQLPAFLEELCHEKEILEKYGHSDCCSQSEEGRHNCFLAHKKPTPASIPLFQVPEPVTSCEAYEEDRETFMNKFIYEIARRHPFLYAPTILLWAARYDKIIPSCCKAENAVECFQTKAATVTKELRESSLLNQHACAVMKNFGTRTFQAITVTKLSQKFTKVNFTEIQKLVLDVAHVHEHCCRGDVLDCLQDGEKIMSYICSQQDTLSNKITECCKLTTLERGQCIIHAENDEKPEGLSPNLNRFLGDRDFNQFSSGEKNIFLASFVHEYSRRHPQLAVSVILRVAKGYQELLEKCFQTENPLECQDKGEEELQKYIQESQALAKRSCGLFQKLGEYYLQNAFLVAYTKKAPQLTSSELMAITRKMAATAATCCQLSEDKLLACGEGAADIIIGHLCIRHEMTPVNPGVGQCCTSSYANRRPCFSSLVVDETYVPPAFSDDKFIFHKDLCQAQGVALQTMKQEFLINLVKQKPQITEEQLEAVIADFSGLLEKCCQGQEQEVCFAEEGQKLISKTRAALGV
UniProt P11117: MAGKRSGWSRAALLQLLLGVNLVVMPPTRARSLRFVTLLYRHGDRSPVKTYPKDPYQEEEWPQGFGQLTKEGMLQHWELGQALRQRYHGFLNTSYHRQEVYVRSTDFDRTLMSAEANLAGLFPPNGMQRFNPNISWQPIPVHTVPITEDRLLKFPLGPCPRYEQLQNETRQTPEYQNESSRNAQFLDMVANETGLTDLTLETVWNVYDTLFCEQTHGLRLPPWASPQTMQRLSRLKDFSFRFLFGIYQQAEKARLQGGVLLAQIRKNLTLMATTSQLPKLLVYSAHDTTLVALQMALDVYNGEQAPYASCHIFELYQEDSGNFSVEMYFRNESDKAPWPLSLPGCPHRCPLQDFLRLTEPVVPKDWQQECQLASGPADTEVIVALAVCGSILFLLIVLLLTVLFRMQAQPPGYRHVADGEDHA
UniProt O95433, whole entry, looked up: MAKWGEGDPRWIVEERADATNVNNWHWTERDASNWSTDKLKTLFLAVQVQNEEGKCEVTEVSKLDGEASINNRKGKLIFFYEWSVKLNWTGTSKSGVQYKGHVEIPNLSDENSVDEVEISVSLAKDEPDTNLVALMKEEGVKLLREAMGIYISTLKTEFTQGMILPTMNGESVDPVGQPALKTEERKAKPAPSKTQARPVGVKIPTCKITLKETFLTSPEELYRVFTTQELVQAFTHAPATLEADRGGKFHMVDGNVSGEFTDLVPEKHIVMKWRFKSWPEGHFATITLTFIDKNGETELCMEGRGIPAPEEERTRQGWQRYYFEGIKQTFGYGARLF
UniProt P30520: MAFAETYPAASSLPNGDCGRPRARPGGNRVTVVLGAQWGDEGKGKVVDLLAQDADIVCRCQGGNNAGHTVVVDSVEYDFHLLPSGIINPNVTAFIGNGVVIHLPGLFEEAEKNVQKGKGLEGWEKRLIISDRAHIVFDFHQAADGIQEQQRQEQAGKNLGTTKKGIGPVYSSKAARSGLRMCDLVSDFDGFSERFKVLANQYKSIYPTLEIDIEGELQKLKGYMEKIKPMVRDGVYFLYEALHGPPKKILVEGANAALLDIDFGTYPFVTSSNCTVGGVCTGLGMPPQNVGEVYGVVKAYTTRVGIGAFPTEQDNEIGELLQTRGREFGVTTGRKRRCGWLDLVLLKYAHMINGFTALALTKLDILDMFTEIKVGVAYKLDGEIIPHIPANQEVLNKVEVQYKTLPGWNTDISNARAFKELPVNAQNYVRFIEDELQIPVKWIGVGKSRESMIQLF
UniProt Q9NX46: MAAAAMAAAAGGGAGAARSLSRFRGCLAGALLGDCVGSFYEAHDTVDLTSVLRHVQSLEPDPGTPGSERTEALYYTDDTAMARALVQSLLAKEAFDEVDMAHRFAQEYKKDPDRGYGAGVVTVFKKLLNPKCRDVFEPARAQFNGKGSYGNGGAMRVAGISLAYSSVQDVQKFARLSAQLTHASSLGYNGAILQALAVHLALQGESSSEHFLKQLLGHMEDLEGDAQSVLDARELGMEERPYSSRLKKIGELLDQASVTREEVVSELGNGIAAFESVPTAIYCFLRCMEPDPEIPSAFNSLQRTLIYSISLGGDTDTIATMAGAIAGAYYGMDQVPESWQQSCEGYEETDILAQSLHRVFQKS
UniProt Q9Y305: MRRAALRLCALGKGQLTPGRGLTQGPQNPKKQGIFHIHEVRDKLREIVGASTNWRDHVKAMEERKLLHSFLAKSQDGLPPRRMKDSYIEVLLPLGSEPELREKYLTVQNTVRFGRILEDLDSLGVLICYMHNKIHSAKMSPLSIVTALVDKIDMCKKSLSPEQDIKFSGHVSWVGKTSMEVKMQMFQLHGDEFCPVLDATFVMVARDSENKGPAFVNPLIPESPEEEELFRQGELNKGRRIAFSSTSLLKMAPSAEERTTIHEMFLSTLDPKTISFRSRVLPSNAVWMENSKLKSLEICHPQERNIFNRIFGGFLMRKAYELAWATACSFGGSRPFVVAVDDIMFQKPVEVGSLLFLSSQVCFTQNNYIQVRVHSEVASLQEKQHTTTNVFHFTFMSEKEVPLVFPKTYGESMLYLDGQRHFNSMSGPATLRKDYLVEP

Columns and labels:
Test in all cases: log2 fold change, soluble protein after heating vs DMSO (PISA); higher = thermal stabilisation; K562 lysate, 10 uM; active = over 0.2 and 3.5 SD of the protein, either way, in both replicates (recomputed)
[1] = compound: C#Cc1cccc(Nc2ncnc3cc(OCCOC)c(OCCOC)cc23)c1 [erlotinib]
In short: (§1)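 Log-two fold change in thermal stability relative to solvent controls is reported from duplicates. For each sample, crude K562 extract from dounce-homogenised pellets in PBS pH 7.4 with 1 mM MgCl2, at 1 mg/mL protein, was treated with 10 μM compound for 30 min. Aliquots heated for 3 min across 48°C-58°C were pooled, brought to 0.5% NP-40 at 4°C and cleared at 21,000xg for 90 min. The supernatant was quantified by TMTpro 16plex LC-MS/MS with channel sums equalised.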

[2] = compound: C/C(=N\NC(=O)C1=CC(=CC=C1)S(=O)(=O)N2CCOCC2)/C3=C(C=CC(=C3)Cl)O
In short: as §1

[3] = compound: C1=CC(=CC=C1C2=NC3=C(N2)C=C(C=C3)C(=O)N)OC4=CC=C(C=C4)Cl
In short: as §1

[4] = compound: C1=CC2=C(C=CC(=C2)/C=C\3/C(=O)NC(=NCC4=CC=CS4)S3)N=C1
In short: as §1

[5] = compound: C1=CC2=NC=CN=C2C=C1/C=C/3\C(=O)NC(=O)S3
In short: as §1

[6] = compound: C1=CC=C(C=C1)C2=NC(=C(N2)C3=CC=NC=C3)C4=CC(=C(C=C4)Cl)O
In short: as §1

[7] = compound: C1=CC=C2C(=C1)C3=NNC4=CC=CC(=C43)C2=O
In short: as §1

[8] = compound: C1CCN(C1)C(=O)NC2=CC=CC(=C2)NC3=NC=C(C(=N3)NCCC4=CN=CN4)Br
In short: as §1

[9] = compound: C1CN(CCC1(CC2=CC=C(C=C2)Cl)N)C3=NC=NC4=C3C=CN4
In short: as §1

[10] = compound: C1COCCN1CCN2C3=CC=CC=C3N=C2NC(=O)C4=CC(=CC=C4)[N+](=O)[O-] [IRAK-1-4 Inhibitor I]
In short: as §1

[11] = compound: C=CC(=O)N1CCC[C@@H](n2nc(-c3ccc(Oc4ccccc4)cc3)c3c(N)ncnc32)C1 [ibrutinib]
In short: as §1

[12] = compound: CC(=O)c1cnc2ccc(-c3cc(Cl)c(O)c(Cl)c3)nc2c1N[C@H]1CC[C@H](CN(C)C)CC1
In short: as §1

[13] = compound: CC(C)(C)Cn1c(N)nc2ccc(-c3[nH]c(C(C)(C)C)nc3-c3ccc(F)cc3)nc21 [ralimetinib]
In short: as §1

[14] = compound: CC(C)(O)CC(=O)NCCn1ccc2ncnc(Nc3ccc(Oc4cccc(C(F)(F)F)c4)c(Cl)c3)c21
In short: as §1

[15] = compound: CC(C)C1=C2N=C(C=C(N2N=C1)NCC3=CC=CC=C3)NCCCCCCN
In short: as §1

[16] = compound: CC1=C(C(CC(=O)N1)C2=CC=C(C=C2)C(F)(F)F)C(=O)NC3=C(C=C4C(=C3)C=NN4)F
In short: as §1

[17] = compound: CC1=C(C2=C(C=C1)C(=O)C3=CC=CC=C3N2CCCN)C
In short: as §1

[18] = compound: CC1=C(C=C(C=C1)NC(=O)C2=CC(=CC=C2)C(C)(C)C#N)NC3=CC4=C(C=C3)N=CN(C4=O)C
In short: as §1

[19] = compound: CC1=C(C=C(C=C1)NC(=O)C2=CC(=CC=C2)N(C)C)NC(=O)C3=CC=C(C=C3)O
In short: as §1

[20] = compound: CC1=CC=C(C=C1)SC2=C3C=C(SC3=CN=C2)C(=O)N
In short: as §1

Measured: log2 fold change

AHCYL2 (UniProt Q96HN2)
inactive: [1] 0.026 | [2] 0.094 | [3] 0.04 | [4] 0.052 | [5] 0.01 | [6] 0.02 | [7] 0.013 | [8] -0.005 | [9] 0.017 | [10] 0.005 | [11] -0.016 | [12] -0.039 | [13] -0.002 | [14] -0.001 | [15] -0.005 | [16] -0.008 | [17] 0.002 | [18] 0.026 | [19] 0 | [20] -0.011

AKR7A2 (UniProt O43488)
inactive: [1] -0.003 | [2] 0.045 | [3] 0.034 | [4] 0.012 | [5] 0.021 | [6] 0.044 | [7] 0.003 | [8] -0.007 | [9] 0.051 | [10] 0.025 | [11] -0.025 | [12] 0.026 | [13] -0.013 | [14] -0.009 | [15] 0.025 | [16] 0.001 | [17] 0.01 | [18] -0.044 | [19] 0 | [20] -0.024

ACTR1B (UniProt P42025)
inactive: [1] 0.003 | [2] -0.082 | [3] 0.063 | [4] 0.102 | [5] -0.004 | [6] 0 | [7] 0.038 | [8] -0.03 | [9] -0.067 | [10] 0.024 | [11] -0.072 | [12] -0.017 | [13] -0.045 | [14] -0.031 | [15] 0.011 | [16] 0.013 | [17] 0.017 | [18] 0.046 | [19] 0.02 | [20] -0.037

AIDA (UniProt Q96BJ3)
inactive: [1] -0.012 | [2] 0.007 | [3] 0.019 | [4] -0.032 | [5] -0.011 | [6] 0.023 | [7] -0.006 | [8] -0.007 | [9] 0.045 | [10] 0.007 | [11] 0.028 | [12] 0.02 | [13] -0.001 | [14] -0.044 | [15] -0.035 | [16] -0.011 | [17] 0.001 | [18] 0.006 | [19] 0.014 | [20] -0.034

AKR1A1 (UniProt P14550)
inactive: [1] 0.007 | [2] 0.02 | [3] -0.004 | [4] 0.016 | [5] 0.007 | [6] -0.015 | [7] -0.011 | [8] -0.008 | [9] 0.02 | [10] -0.006 | [11] -0.009 | [12] -0.009 | [13] -0.009 | [14] 0 | [15] 0.01 | [16] -0.016 | [17] 0 | [18] 0 | [19] 0.002 | [20] 0.007

ADD1 isoform 3 (UniProt P35611)
inactive: [1] -0.027 | [2] 0 | [3] 0.033 | [4] 0.011 | [5] -0.01 | [6] -0.004 | [7] 0.011 | [8] -0.015 | [9] -0.014 | [10] -0.021 | [11] -0.006 | [12] -0.009 | [13] 0 | [14] -0.01 | [15] -0.005 | [16] 0.007 | [17] -0.038 | [18] 0.005 | [19] -0.009 | [20] -0.019

AFP (UniProt P02771)
inactive: [1] 0.002 | [2] 0.16 | [3] -0.003 | [4] 0.117 | [5] -0.032 | [6] 0.023 | [7] -0.137 | [8] 0.032 | [9] 0.039 | [10] 0.012 | [11] -0.026 | [12] 0.074 | [13] -0.022 | [14] -0.022 | [15] -0.048 | [16] 0.069 | [17] 0.014 | [18] -0.053 | [19] -0.02 | [20] 0.057

2 records drawn at random from the list so far, as already listed:
ADD1 isoform 3 (UniProt P35611)
inactive: [1] -0.027 | [2] 0 | [3] 0.033 | [4] 0.011 | [5] -0.01 | [6] -0.004 | [7] 0.011 | [8] -0.015 | [9] -0.014 | [10] -0.021 | [11] -0.006 | [12] -0.009 | [13] 0 | [14] -0.01 | [15] -0.005 | [16] 0.007 | [17] -0.038 | [18] 0.005 | [19] -0.009 | [20] -0.019

AIDA (UniProt Q96BJ3)
inactive: [1] -0.012 | [2] 0.007 | [3] 0.019 | [4] -0.032 | [5] -0.011 | [6] 0.023 | [7] -0.006 | [8] -0.007 | [9] 0.045 | [10] 0.007 | [11] 0.028 | [12] 0.02 | [13] -0.001 | [14] -0.044 | [15] -0.035 | [16] -0.011 | [17] 0.001 | [18] 0.006 | [19] 0.014 | [20] -0.034

(list continues)

ACP2 (UniProt P11117)
inactive: [1] -0.034 | [2] 0.017 | [3] 0.047 | [4] -0.026 | [5] -0.017 | [6] 0.044 | [7] -0.026 | [8] -0.005 | [9] 0 | [10] 0.053 | [11] 0.029 | [12] 0.018 | [13] 0.115 | [14] 0.031 | [15] 0.023 | [16] 0.022 | [17] -0.018 | [18] 0.032 | [19] -0.035 | [20] -0.034

AGO3 (UniProt Q9H9G7)
inactive: [1] -0.021 | [2] -0.039 | [3] 0.005 | [4] -0.009 | [5] 0.027 | [6] 0.011 | [7] -0.052 | [8] -0.011 | [9] 0.01 | [10] 0.016 | [11] -0.017 | [12] 0.018 | [13] 0.006 | [14] -0.105 | [15] -0.006 | [16] 0.048 | [17] -0.025 | [18] -0.04 | [19] 0.002 | [20] 0.002

AHSA1 (UniProt O95433)
inactive: [1] -0.005 | [2] -0.021 | [3] 0.005 | [4] -0.046 | [5] 0.004 | [6] 0 | [7] 0.021 | [8] 0 | [9] -0.009 | [10] 0.019 | [11] 0.013 | [12] -0.013 | [13] -0.009 | [14] -0.027 | [15] 0.005 | [16] 0.002 | [17] 0.006 | [18] 0.01 | [19] -0.013 | [20] -0.019

ACTR2 (UniProt P61160)
inactive: [1] 0.011 | [2] 0.015 | [3] 0.023 | [4] 0.015 | [5] -0.006 | [6] -0.001 | [7] -0.007 | [8] 0.014 | [9] -0.005 | [10] 0.006 | [11] -0.006 | [12] -0.015 | [13] -0.002 | [14] -0.02 | [15] 0.019 | [16] -0.005 | [17] -0.012 | [18] 0.004 | [19] -0.003 | [20] 0.003

ADSS2 (UniProt P30520)
inactive: [1] -0.023 | [2] -0.009 | [3] 0.043 | [4] -0.017 | [5] 0.012 | [6] 0.025 | [7] -0.002 | [8] 0.006 | [9] -0.004 | [10] 0.045 | [11] -0.003 | [12] -0.009 | [13] 0.023 | [14] 0.011 | [15] -0.003 | [16] -0.023 | [17] 0 | [18] -0.001 | [19] -0.006 | [20] 0

ADPRHL2 (UniProt Q9NX46)
inactive: [1] -0.031 | [2] 0.038 | [3] 0.022 | [4] -0.039 | [5] 0.012 | [6] 0 | [7] -0.004 | [8] 0.03 | [9] 0.037 | [10] -0.023 | [11] -0.042 | [12] -0.011 | [13] -0.033 | [14] 0.009 | [15] 0.007 | [16] -0.053 | [17] -0.038 | [18] -0.027 | [19] 0.013 | [20] 0.034

AGO1 (UniProt Q9UL18)
inactive: [1] 0.045 | [2] -0.089 | [3] 0.031 | [4] 0.029 | [5] -0.026 | [6] 0.021 | [7] 0.02 | [8] -0.028 | [9] 0.064 | [10] 0.016 | [11] 0.026 | [12] 0.009 | [13] 0.004 | [14] 0.001 | [15] 0 | [16] 0.006 | [17] -0.043 | [18] -0.025 | [19] -0.005 | [20] 0.009

ACOT9 isoform 4 (UniProt Q9Y305)
inactive: [1] -0.012 | [2] -0.037 | [3] 0.019 | [4] -0.007 | [5] 0.035 | [6] 0.01 | [7] -0.013 | [8] -0.012 | [9] -0.021 | [10] -0.031 | [11] -0.008 | [12] -0.001 | [13] 0.012 | [14] 0.02 | [15] 0.057 | [16] 0.034 | [17] 0.056 | [18] -0.056 | [19] -0.018 | [20] 0.021
